Consider three molecules from article PMC6443681.

These are yes or no findings as the source states them, for the method shown. For some of these results: In cells and extracts the contact can be indirect. Some results given as binding are weak or reduced against the parent protein; the word gives no strength. Sequences can lack the tags named with a protein.

Assay [1] addresses T1, BWMK1: GST fusion protein (rice (Oryza sativa, Nipponbare)) (UniProt Q5Z9J0).
T1 sequence: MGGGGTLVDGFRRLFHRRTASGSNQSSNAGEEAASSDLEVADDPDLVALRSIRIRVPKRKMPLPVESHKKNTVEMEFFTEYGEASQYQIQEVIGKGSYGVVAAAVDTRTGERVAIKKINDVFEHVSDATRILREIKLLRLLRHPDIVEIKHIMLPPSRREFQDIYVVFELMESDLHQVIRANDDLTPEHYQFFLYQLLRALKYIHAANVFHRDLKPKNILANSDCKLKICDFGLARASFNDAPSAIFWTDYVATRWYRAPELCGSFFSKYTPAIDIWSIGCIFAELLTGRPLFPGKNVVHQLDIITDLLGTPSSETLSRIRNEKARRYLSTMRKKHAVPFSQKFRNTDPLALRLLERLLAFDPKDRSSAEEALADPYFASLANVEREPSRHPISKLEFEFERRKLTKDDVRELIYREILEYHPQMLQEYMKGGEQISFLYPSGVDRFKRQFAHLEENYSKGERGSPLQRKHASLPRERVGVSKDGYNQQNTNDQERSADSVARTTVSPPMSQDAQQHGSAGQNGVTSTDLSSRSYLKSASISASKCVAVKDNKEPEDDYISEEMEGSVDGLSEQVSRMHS
In words: pull-down; 10 ug OsPT8:MBP mixed with 10 ug BWMK1:GST, glutathione sepharose beads, 4 h at 4 C, five washes with 1x TBST, Western blot with anti-MBP or anti-GST; both purified. (In general: A western blot detects proteins with antibodies after separation by electrophoresis.)

Assay [2] addresses T2, OsPT2 (rice homologue of OsPT8), yeast two-hybrid fusion (rice) (UniProt Q8GSD9).
T2 sequence: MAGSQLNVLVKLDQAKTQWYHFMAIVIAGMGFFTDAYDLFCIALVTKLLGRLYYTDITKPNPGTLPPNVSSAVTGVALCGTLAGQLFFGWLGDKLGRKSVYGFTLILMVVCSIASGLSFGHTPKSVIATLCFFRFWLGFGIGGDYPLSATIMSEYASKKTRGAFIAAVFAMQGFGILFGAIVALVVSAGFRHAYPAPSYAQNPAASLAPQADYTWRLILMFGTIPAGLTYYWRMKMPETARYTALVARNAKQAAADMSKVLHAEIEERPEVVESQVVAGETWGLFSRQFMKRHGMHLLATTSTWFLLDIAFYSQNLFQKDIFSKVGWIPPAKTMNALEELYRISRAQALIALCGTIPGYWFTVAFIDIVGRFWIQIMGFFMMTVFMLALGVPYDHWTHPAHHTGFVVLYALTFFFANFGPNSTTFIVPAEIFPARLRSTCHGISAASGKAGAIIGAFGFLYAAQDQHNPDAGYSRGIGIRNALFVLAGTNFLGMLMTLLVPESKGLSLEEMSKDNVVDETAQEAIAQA
The experiment in a line: two-hybrid; yeast strain Mav203, AD vector pPC86 and BD vector pDBLeu; OsPT8 as bait against the rice NPB cDNA library, then confirmed; growth on SD-Leu-Trp-His with 35 mM 3'AT.

Assay [3] concerns the target T3, OsPT8 (rice phosphate transporter, Pht1 family), yeast two-hybrid fusion (rice (Oryza sativa, Nipponbare)) (UniProt Q8H6G8).
T3 sequence: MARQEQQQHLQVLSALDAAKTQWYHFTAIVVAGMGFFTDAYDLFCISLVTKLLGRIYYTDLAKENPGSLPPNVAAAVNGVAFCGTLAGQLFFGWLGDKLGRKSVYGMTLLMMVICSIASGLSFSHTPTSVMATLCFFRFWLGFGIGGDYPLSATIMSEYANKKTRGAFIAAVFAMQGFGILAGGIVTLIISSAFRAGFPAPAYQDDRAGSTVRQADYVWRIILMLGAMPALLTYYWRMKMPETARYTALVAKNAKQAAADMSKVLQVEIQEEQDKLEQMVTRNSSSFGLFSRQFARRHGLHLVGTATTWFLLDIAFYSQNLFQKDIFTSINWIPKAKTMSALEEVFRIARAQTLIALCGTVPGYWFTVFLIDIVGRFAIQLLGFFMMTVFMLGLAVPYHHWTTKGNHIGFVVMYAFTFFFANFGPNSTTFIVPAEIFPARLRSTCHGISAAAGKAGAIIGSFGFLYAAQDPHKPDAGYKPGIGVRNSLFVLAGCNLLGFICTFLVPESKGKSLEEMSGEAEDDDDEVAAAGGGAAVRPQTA
Described as above.

The target of assay [4] is T4, OsPT8-Cluc (rice (Oryza sativa, Nipponbare)) (UniProt Q8H6G8).
T4 sequence: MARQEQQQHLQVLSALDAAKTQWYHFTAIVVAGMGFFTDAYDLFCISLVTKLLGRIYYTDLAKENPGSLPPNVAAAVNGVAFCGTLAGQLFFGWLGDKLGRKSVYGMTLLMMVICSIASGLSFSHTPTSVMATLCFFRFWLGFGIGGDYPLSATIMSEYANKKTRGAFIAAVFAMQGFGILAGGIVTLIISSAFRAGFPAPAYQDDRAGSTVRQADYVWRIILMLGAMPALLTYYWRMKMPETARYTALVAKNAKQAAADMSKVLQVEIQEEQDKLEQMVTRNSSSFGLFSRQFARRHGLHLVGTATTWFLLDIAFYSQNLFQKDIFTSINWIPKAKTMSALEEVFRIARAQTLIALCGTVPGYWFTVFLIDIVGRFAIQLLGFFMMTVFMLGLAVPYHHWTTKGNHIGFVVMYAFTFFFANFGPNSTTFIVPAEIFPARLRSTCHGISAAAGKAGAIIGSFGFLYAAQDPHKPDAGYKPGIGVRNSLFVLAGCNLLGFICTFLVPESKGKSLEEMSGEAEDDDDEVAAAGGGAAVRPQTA
In words: split reporter; firefly luciferase complementation imaging (LCI) in N. benthamiana leaves, co-infiltrated with p19, 26 C dark 48 h.

B1: OsPT8: MBP fusion protein (protein, UniProt Q8H6G8 1-541)
chain: MARQEQQQHLQVLSALDAAKTQWYHFTAIVVAGMGFFTDAYDLFCISLVTKLLGRIYYTDLAKENPGSLPPNVAAAVNGVAFCGTLAGQLFFGWLGDKLGRKSVYGMTLLMMVICSIASGLSFSHTPTSVMATLCFFRFWLGFGIGGDYPLSATIMSEYANKKTRGAFIAAVFAMQGFGILAGGIVTLIISSAFRAGFPAPAYQDDRAGSTVRQADYVWRIILMLGAMPALLTYYWRMKMPETARYTALVAKNAKQAAADMSKVLQVEIQEEQDKLEQMVTRNSSSFGLFSRQFARRHGLHLVGTATTWFLLDIAFYSQNLFQKDIFTSINWIPKAKTMSALEEVFRIARAQTLIALCGTVPGYWFTVFLIDIVGRFAIQLLGFFMMTVFMLGLAVPYHHWTTKGNHIGFVVMYAFTFFFANFGPNSTTFIVPAEIFPARLRSTCHGISAAAGKAGAIIGSFGFLYAAQDPHKPDAGYKPGIGVRNSLFVLAGCNLLGFICTFLVPESKGKSLEEMSGEAEDDDDEVAAAGGGAAVRPQTA
For B1, in assay [1], the binding result is “binds”.

B2: BWMK1 (rice mitogen-activated protein kinase), yeast two-hybrid fusion (protein, UniProt Q5Z9J0 1-580)
chain: MGGGGTLVDGFRRLFHRRTASGSNQSSNAGEEAASSDLEVADDPDLVALRSIRIRVPKRKMPLPVESHKKNTVEMEFFTEYGEASQYQIQEVIGKGSYGVVAAAVDTRTGERVAIKKINDVFEHVSDATRILREIKLLRLLRHPDIVEIKHIMLPPSRREFQDIYVVFELMESDLHQVIRANDDLTPEHYQFFLYQLLRALKYIHAANVFHRDLKPKNILANSDCKLKICDFGLARASFNDAPSAIFWTDYVATRWYRAPELCGSFFSKYTPAIDIWSIGCIFAELLTGRPLFPGKNVVHQLDIITDLLGTPSSETLSRIRNEKARRYLSTMRKKHAVPFSQKFRNTDPLALRLLERLLAFDPKDRSSAEEALADPYFASLANVEREPSRHPISKLEFEFERRKLTKDDVRELIYREILEYHPQMLQEYMKGGEQISFLYPSGVDRFKRQFAHLEENYSKGERGSPLQRKHASLPRERVGVSKDGYNQQNTNDQERSADSVARTTVSPPMSQDAQQHGSAGQNGVTSTDLSSRSYLKSASISASKCVAVKDNKEPEDDYISEEMEGSVDGLSEQVSRMHS
Regarding B2, the binding entry is “no binding” in assay [2] and “binds” in assay [3].

B3: BWMK1-Nluc (protein, UniProt Q5Z9J0 1-580)
chain: MGGGGTLVDGFRRLFHRRTASGSNQSSNAGEEAASSDLEVADDPDLVALRSIRIRVPKRKMPLPVESHKKNTVEMEFFTEYGEASQYQIQEVIGKGSYGVVAAAVDTRTGERVAIKKINDVFEHVSDATRILREIKLLRLLRHPDIVEIKHIMLPPSRREFQDIYVVFELMESDLHQVIRANDDLTPEHYQFFLYQLLRALKYIHAANVFHRDLKPKNILANSDCKLKICDFGLARASFNDAPSAIFWTDYVATRWYRAPELCGSFFSKYTPAIDIWSIGCIFAELLTGRPLFPGKNVVHQLDIITDLLGTPSSETLSRIRNEKARRYLSTMRKKHAVPFSQKFRNTDPLALRLLERLLAFDPKDRSSAEEALADPYFASLANVEREPSRHPISKLEFEFERRKLTKDDVRELIYREILEYHPQMLQEYMKGGEQISFLYPSGVDRFKRQFAHLEENYSKGERGSPLQRKHASLPRERVGVSKDGYNQQNTNDQERSADSVARTTVSPPMSQDAQQHGSAGQNGVTSTDLSSRSYLKSASISASKCVAVKDNKEPEDDYISEEMEGSVDGLSEQVSRMHS
B3: in assay [4], the binding entry was “binds”.
